# Measurements taken from PubChem BioAssay AID2685 (National Center for Advancing Translational Sciences (NCATS), 2010).
# The other results are listed elsewhere or left out. The main result of the screen is listed elsewhere. These columns were measured beside it and carry no call. Compounds called inactive in the main read-out are mostly missing here. Words in brackets tell the shape of the fitted curve; partial curves, single points and poor fits give uncertain potencies.
# Experiment: qHTS Assay for Lipid Storage Modulators in Drosophila S3 Cells;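 as to cell number change: cells counted by Cell Tracker Red CMTPX staining in the red channel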
# Settings: BODIPY lipid droplet fluorescence, 18-24 h; for cell number change: measured here: cell count max response, cells fed with added oleic acid
# How it was run: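 Drosophila S3 cells got compounds at several concentrations plus oleic acid (400 uM solution). Laser-scanning cytometry with 488 nm excitation read lipid droplets at 500-530 nm and cells at 575-640 nm. Percent activity was relative to 20 uM Triacsin C.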
# [1] = measured here: lipid fluorescence (Fed channel) AC50, cells fed with added oleic acid
# [2] = measured here: cell number channel AC50, cells fed with added oleic acid
structure (smiles),measurement,setting,value
CCCCOC(=O)c1ccc(NC(=O)CN2C(=O)NC3(CCCCCC3)C2=O)cc1,cell number change,,-0.968%
same,AC50,[1],"23.1 µM [falling, partial curve]"
CC(C)(C)Cc1nnc(NS(=O)(=O)Cc2ccccc2)s1,cell number change,,9.1%
CN(C)C1=NCCN1CCCC1CCCCC1,cell number change,,5.25%
same,AC50,[1],"29.1 µM [rising, single point]"
O=C(Cn1nc(-c2ccccc2)oc1=O)OCC(=O)c1ccc(F)c(F)c1,cell number change,,-65.4%
same,AC50,[1],"29.1 µM [falling, single point]"
NS(=O)(=O)c1ccc(CNC(=O)/C=C/c2ccco2)cc1,cell number change,,5.68%
same,AC50,[1],"0.058 µM [falling, full curve, poor fit]"
COCCn1c(C)cc(C(=O)CSc2nc3ccccc3c(=O)n2C(C)COC)c1C (configuration not stated),cell number change,,0.34%
same,AC50,[1],"0.164 µM [rising, full curve, poor fit]"
C=CCc1cccc(CNc2ccc(Br)cc2)c1O,cell number change,,-51.7%
same,AC50,[2],"29.1 µM [falling, single point]"
CN(CC(O)COc1ccc(OCC(O)CN(C)C2CCCCC2)cc1)C1CCCCC1 (configuration not stated),cell number change,,32.7%
same,AC50,[2],"4.11 µM [falling, single point]"
COc1ccc(NC(=O)CCNS(=O)(=O)c2ccc3c(c2)c(=O)n(C)c(=O)n3C)cc1OC,cell number change,,-35.7%
same,AC50,[2],"0.231 µM [falling, full curve, poor fit]"
same,AC50,[1],"8.2 µM [rising, partial curve, poor fit]"
CN(Cc1ccccc1F)C(=O)CN1CCN(S(=O)(=O)c2ccc3c(c2)OCCCO3)CC1,cell number change,,-18.1%
same,AC50,[1],"16.4 µM [falling, single point]"
Cc1ccc(NC(=O)CN(C)S(=O)(=O)c2cccs2)c(Br)c1,cell number change,,0.794%
CCOc1ccc(CCNC(=O)c2cccc(S(=O)(=O)N3CCCC3)c2)cc1OCC,cell number change,,-25%
same,AC50,[2],"4.11 µM [falling, full curve, poor fit]"
COc1ccc(Nc2c(C)cccc2C)cc1,cell number change,,-52.3%
same,AC50,[2],"9.2 µM [falling, partial curve]"
O=C(CN1C(=O)C2CC=CCC2C1=O)NCC(=O)Nc1ccc(F)c(F)c1 (configuration not stated),cell number change,,-30.8%
same,AC50,[2],"29.1 µM [falling, single point]"
same,AC50,[1],"20.6 µM [falling, single point]"
COc1cc(C(=O)NC(C)CCn2cccn2)ccc1OC1CCN(C(C)=O)CC1 (configuration not stated),cell number change,,7.01%
same,AC50,[1],"6.51 µM [rising, single point]"
CCN1CCSc2ccc(C(=O)NCc3ccc(OC(C)C)cc3)cc21,cell number change,,-2.31%
same,AC50,[1],"23.1 µM [falling, single point]"
Fc1ccccc1-c1nnc2ccc3ccccc3n12,cell number change,,1.09%
same,AC50,[1],"0.731 µM [falling, full curve]"
CC(=O)c1cccc(Nc2nc(-c3cccnc3)cs2)c1,cell number change,,-13.7%
Cc1ccc(Nc2nc3ccccc3s2)c(C)c1,cell number change,,-28.6%
same,AC50,[2],"0.146 µM [falling, full curve, poor fit]"
same,AC50,[1],"9.2 µM [rising, partial curve]"
Nc1c(-c2cccs2)cnn1-c1nc(-c2ccc(F)cc2)cs1,cell number change,,13.2%
COc1cccc(NC(=S)N/N=C2\CC3CCC2(C)C3(C)C)c1 (configuration not stated),cell number change,,-57.8%
CCOC(=O)CSc1nnc(Cc2cc(=O)[nH]c(=O)[nH]2)n1-c1ccc(Cl)cc1,cell number change,,35.9%
same,AC50,[2],"25.9 µM [rising, single point]"
CCc1ccc(C2CC(c3ccccc3)n3ncnc3N2)cc1 (configuration not stated),cell number change,,-0.395%
same,AC50,[1],"6.51 µM [rising, partial curve, poor fit]"
COc1ccc(Cn2c(-c3ccco3)nc3oc4ccccc4c(=O)c3c2=O)cc1,AC50,[2],"2.91 µM [rising, partial curve]"
same,AC50,[1],"3.66 µM [rising, partial curve]"
O=S1(=O)CCN2C=C(Cl)C=C(Cl)C2=N1,cell number change,,-46%
same,AC50,[2],"25.9 µM [falling, single point]"
O=C(CCNC(=O)Cn1cnc2ccccc2c1=O)NCC1COc2ccccc2O1 (configuration not stated),cell number change,,-21.9%
same,AC50,[1],"16.4 µM [falling, single point]"
O=C(c1ccc(N2CCC3(CC2)OCCO3)c([N+](=O)[O-])c1)N1CCOCC1,AC50,[1],"5.8 µM [falling, single point]"
COc1ccc(OCC(=O)N2N=C(C)CC2(O)C(F)(F)F)cc1 (configuration not stated),cell number change,,51.1%
same,AC50,[2],"20.6 µM [rising, partial curve, poor fit]"
same,AC50,[1],"0.00461 µM [rising, full curve, poor fit]"
COc1ccc(S(=O)(=O)Cc2ccc(C(=O)NC3CCCCCC3)o2)cc1,cell number change,,0.59%
O=C(Nc1ccccc1O)c1cccc(NC(=O)c2ccco2)c1,cell number change,,-36.1%
same,AC50,[2],"18.4 µM [falling, single point]"
same,AC50,[1],"29.1 µM [falling, single point]"
O=C(N/N=C/C=C/c1ccccc1)c1cnccn1,cell number change,,35.7%
same,AC50,[2],"13 µM [rising, single point]"
same,AC50,[1],"20.6 µM [rising, partial curve]"
O=C(Nn1c(SCc2cccc([N+](=O)[O-])c2)nc2ccccc2c1=O)c1ccccc1,cell number change,,-0.329%
CC(=O)COc1cc2c(-c3cc4ccccc4o3)cc(=O)oc2cc1C,cell number change,,50.8%
same,AC50,[2],"18.4 µM [rising, single point]"
CCc1ccc(N2CC(C(=O)Nc3ccc(S(=O)(=O)N4CCCCC4)cc3)CC2=O)cc1 (configuration not stated),cell number change,,-14.1%
same,AC50,[1],"2.91 µM [falling, single point]"
Cc1ccc(C(=O)NNC(=O)CCC(=O)NCc2ccccc2)cc1Br,cell number change,,-19%
same,AC50,[2],"0.651 µM [falling, full curve, poor fit]"
same,AC50,[1],"29.1 µM [rising, single point]"
Cc1ccc(-n2ncc3c2CCCC3NC(=O)CCc2cnccn2)cc1C (configuration not stated),cell number change,,-56.9%
same,AC50,[2],"1.16 µM [falling, full curve]"
same,AC50,[1],"29.1 µM [falling, single point]"
CCOC(=O)c1cccc(NC(=O)CSc2nnc(CNc3ccc(C)cc3)n2CC)c1,cell number change,,-46.2%
same,AC50,[2],"20.6 µM [falling, single point]"
same,AC50,[1],"0.731 µM [falling, full curve, poor fit]"
CCOC(=O)c1c(NC(=O)CN2CCN(C(=O)C3CCCO3)CC2)sc(C)c1C (configuration not stated),cell number change,,-10.2%
CCOc1ccc(C(=O)NC(=S)N2CCN(c3ccc(C(F)(F)F)cc3[N+](=O)[O-])CC2)cc1,cell number change,,12.7%
same,AC50,[1],"29.1 µM [rising, single point]"
Cc1c(Cl)cccc1NC(=O)CN1CCC(NC(=O)C2CCCCC2)CC1,cell number change,,-26%
same,AC50,[1],"20.6 µM [falling, partial curve, poor fit]"
CCOC(=O)Cn1c(=O)c2c(nc3n2CCN3c2ccc(C)cc2)n(C)c1=O,cell number change,,-1.43%
same,AC50,[1],"18.4 µM [rising, single point]"
COc1ccc(N2CCN(C(=S)Nc3cc(C)cc(C)c3)CC2)cc1,cell number change,,22.1%
same,AC50,[1],"16.4 µM [rising, partial curve]"
COC(=O)c1ccc(NC(=O)C(C)N2C(=O)c3ccccc3C2=O)cc1 (configuration not stated),cell number change,,33.6%
same,AC50,[2],"32.6 µM [rising, single point]"
CC(C)c1ccc(NC(=O)C2CCCCC2C(=O)O)cc1 (configuration not stated),cell number change,,7.2%
same,AC50,[1],"25.9 µM [falling, partial curve]"
O=Cc1cn(-c2ccccc2)nc1-c1cc2cc(O)ccc2oc1=O,cell number change,,24.4%
same,AC50,[1],"6.51 µM [falling, single point]"
Cc1nn(-c2ccccc2)c2sc(C(=O)N(CC(=O)NC(C)(C)C)Cc3ccco3)cc12,cell number change,,-95.2%
same,AC50,[2],"18.4 µM [falling, single point]"
same,AC50,[1],"29.1 µM [falling, single point]"
O=C1CC(C(=O)N2CCc3ccccc32)CN1c1cccc(C(F)(F)F)c1 (configuration not stated),cell number change,,-18.4%
CCCOc1ccc(C2=NNC(c3cccs3)=Nc3ccc(OC)cc32)cc1,cell number change,,-38.8%
same,AC50,[2],"29.1 µM [falling, single point]"
same,AC50,[1],"23.1 µM [falling, single point]"
CC(C)c1ccc(/C=C2\SC(=S)N(CCC(=O)NCCCn3ccnc3)C2=O)cc1,cell number change,,-18%
same,AC50,[1],"29.1 µM [falling, single point]"
Cc1ccc(S(=O)(=O)N[C@H](C(=O)N2CCC(C(=O)N[C@H](C(=O)O)c3ccccc3)CC2)C(C)C)cc1,cell number change,,-0.872%
Cc1cccc(NC(=O)c2ccc3c(c2)C(=O)N(Cc2cccnc2)C3=O)c1C,cell number change,,-11.1%
same,AC50,[1],"14.6 µM [falling, partial curve, poor fit]"
COc1cccc(N2C(=NC(=O)c3ccccc3)SC3CS(=O)(=O)CC32)c1 (configuration not stated),cell number change,,1.3%
same,AC50,[1],"6.51 µM [falling, single point]"
CCCCc1nc(SCC(=O)Nc2nnc(C(C)C)s2)n[nH]1,cell number change,,43.1%
same,AC50,[2],"20.6 µM [rising, partial curve, poor fit]"
CC(=O)Nc1ccc(NC(=O)C(C)Sc2n[nH]c(-c3cccs3)n2)cc1 (configuration not stated),cell number change,,11.8%
same,AC50,[1],"23.1 µM [rising, single point]"
COc1cccc(C(=O)NNC(=O)C(=O)Nc2cccc3ccccc23)c1,cell number change,,111%
same,AC50,[2],"23.1 µM [rising, partial curve]"
CC(CCc1ccccc1)NCC#N (configuration not stated),cell number change,,-21.2%
same,AC50,[1],"8.2 µM [falling, partial curve]"
O=C(c1cccc(S(=O)(=O)Nc2ccccc2Cl)c1)N1CCN(C(=O)c2ccco2)CC1,cell number change,,20.4%
CC(=O)c1ccc(NC(=O)C2(c3ccccc3)CCOCC2)cc1,cell number change,,-4.46%
O=c1c2c3nc4ccccc4nc3n(-c3ccc4c(c3)OCCO4)c2ncn1C1CCCC1,cell number change,,-4.83%
COc1ccc(C(=O)NNC(=O)CSc2nnc(-c3cccnc3)n2C)cc1,cell number change,,1.85%
COc1ccc(N2C(=O)C3CCCN3C2=O)cc1 (configuration not stated),AC50,[1],"2.91 µM [falling, full curve]"

# Reformatted with tabs: entries from further up.
structure (smiles)	measurement	setting	value
CCCCOC(=O)c1ccc(NC(=O)CN2C(=O)NC3(CCCCCC3)C2=O)cc1	AC50	[1]	23.1 µM [falling, partial curve]
CCc1ccc(C2CC(c3ccccc3)n3ncnc3N2)cc1 (configuration not stated)	AC50	[1]	6.51 µM [rising, partial curve, poor fit]
O=C(Nc1ccccc1O)c1cccc(NC(=O)c2ccco2)c1	AC50	[2]	18.4 µM [falling, single point]
Cc1ccc(C(=O)NNC(=O)CCC(=O)NCc2ccccc2)cc1Br	cell number change		-19%
CC(C)c1ccc(/C=C2\SC(=S)N(CCC(=O)NCCCn3ccnc3)C2=O)cc1	AC50	[1]	29.1 µM [falling, single point]

# Retrieved one by one from above:
structure (smiles),measurement,setting,value
Cc1ccc(Nc2nc3ccccc3s2)c(C)c1,AC50,[1],"9.2 µM [rising, partial curve]"
CC(=O)Nc1ccc(NC(=O)C(C)Sc2n[nH]c(-c3cccs3)n2)cc1 (configuration not stated),AC50,[1],"23.1 µM [rising, single point]"
